Screen size: about 340,000 compounds; about 170 (0.05%) were called active. This list was built around the results that the source calls inconclusive (neither active nor inactive); the mix of calls is not that of the screen. Calls come from the whole dose curve; as a rule, active = well fitted inhibition curve with a large enough effect in the signal ratio, with a control signal flat (not every such curve was filed as active); inconclusive = small, poorly fitted or top-dose-only effect, or effect the other way, or a change in a side signal; inactive = flat fitted curve, though single readings scatter; the % refers to the signal ratio. Potencies of inconclusive entries are doubtful fits and often do not repeat.
Experiment: qHTS Assay to Find Inhibitors of Chronic Active B-Cell Receptor Signaling;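 for activity change, negative = inhibition: plate controls were basal doxycycline-induced cells for no effect and cells given 10 µM MG132 for full effect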
Conditions: ABC-DLBCL IkBa-CBG/CBR reporter, luminescence ratio (green luciferase fused to IkBa over red control in TMD8 lymphoma cells), 4 h; activity change, negative = inhibition: at 46.1 µM (top of the series)
How it was run: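 Doxycycline induced both beetle luciferases in TMD8 lymphoma cells; IKK-driven degradation limits the IkappaBalpha-fused green signal, while red luminescence normalises for cell number and nonspecific effects. Compounds tested up to 46 uM, 4 hrs.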
Potency is the fitted concentration of half-maximal effect.

Compound	Potency	activity change, negative = inhibition
N#CC(C#N)=Cc1ccccc1OCc1ccccc1	inconclusive: 35.5 µM [falling, single point]	–
COc1ccc(C(CNC(=O)c2ccc(OCc3c(C)noc3C)cc2)N2CCCC2)cc1 (stereo not given)	inconclusive: 32.6 µM [falling, partial curve, poor fit]	–
O=C(c1ccc(N2CCOCC2)c([N+](=O)[O-])c1)N1CCN(S(=O)(=O)c2cccs2)CC1	–	inconclusive: 0.56%
O=C(/C=C/c1ccccc1Cl)Nc1cccc(S(=O)(=O)NC2=NCCCCC2)c1	–	inconclusive: -4.18%
CCOc1ccc(N(CC(=O)Nc2cc(OC)cc(OC)c2)S(=O)(=O)c2c(C)[nH]c(=O)[nH]c2=O)cc1	–	inactive: 2.63%
Cc1ccc(-c2cnc(NC(=O)c3cccc(Br)c3)s2)c(C)c1	–	inactive: 10.3%
CCC(=O)Nc1nc(C)c(-c2csc(Nc3cccc(O)c3)n2)s1	inconclusive: 3.55 µM [falling, partial curve]	–
COc1cccc(Nc2nc3ccccc3c(=O)[nH]2)c1	–	inconclusive: 0.965%
Fc1ccc(-c2noc3ncnc(Nc4ccc(F)cc4F)c23)cc1	–	inconclusive: 13.4%
O=C(CC1N=C2c3ccccc3N=C(SCc3ccc(F)cc3)N2C1=O)NC1CCCCC1 (stereo not given)	–	inactive: 5.87%
CCOc1ccc2nc(SCc3ccc(C(=O)OC)o3)[nH]c2c1	inconclusive: 18.4 µM [falling, single point]	–
Cc1ccc2c(Cl)c(C(=O)NCCCn3ccnc3)sc2c1	–	inconclusive: 0.0409%
COc1ccc(C(=O)C2CCCN(Cc3cn[nH]c3-c3ccccc3)C2)cc1OC (stereo not given)	inconclusive: 15.8 µM [falling, single point]	–
CC(=NCc1ccco1)C1=C(O)c2ccccc2C1=O	–	inconclusive: 2.17%
O=C(Nc1ccncc1)Nc1ccc(F)c(Cl)c1	–	inconclusive: 9.41%
CCOC(=O)c1c(NC(=O)CN2CCCCC2)sc2c1CCN(C(=O)OCC)C2	–	inconclusive: -15.4%
O=C(CSC1=NCCS1)Nc1ccc(S(=O)(=O)NC2CCCCC2)cc1	–	inactive: -24.6%
CCCn1c2ccccc2c2cnn(CC(=O)NC3CCN(Cc4ccccc4)CC3)c(=O)c21	–	inactive: 5.25%
COc1ccc([C@]23Cc4cc(C#N)ccc4C(O2)C2=C(CC4(CCCCC4)OC2=O)O3)cc1	–	inactive: 24.4% [at 9.22 µM]
Cc1cccc2sc(NC(=O)C3CCN(S(=O)(=O)c4cc([N+](=O)[O-])ccc4Cl)CC3)nc12	inconclusive: 9.2 µM [rising, partial curve]	–
CC1CCc2c(sc(NC(=O)CSc3nnc(-c4ccccc4)o3)c2C#N)C1 (stereo not given)	inconclusive: 4.11 µM [rising, partial curve]	–
Cc1ccc(C)c(NC(=O)CN(C)S(=O)(=O)c2cccc3cccnc23)c1	–	inconclusive: 1.64%
Cn1cc(SCC(=O)NCc2ccc(F)cc2)c2ccccc21	–	inactive: -16.4%
Cc1c(Cl)ccc2sc(NC(=O)c3ccco3)nc12	inconclusive: 0.282 µM [rising, full curve, poor fit]	–
Cc1nc2nc(Cc3ccccc3)[nH]n2c(=O)c1Cl	inconclusive: 5.8 µM [falling, single point]	–

15 compounds out of the list, sorted by molecular weight, largest number first:
Compound	Potency	activity change, negative = inhibition
CCOc1ccc(N(CC(=O)Nc2cc(OC)cc(OC)c2)S(=O)(=O)c2c(C)[nH]c(=O)[nH]c2=O)cc1	–	inactive: 2.63%
O=C(c1ccc(N2CCOCC2)c([N+](=O)[O-])c1)N1CCN(S(=O)(=O)c2cccs2)CC1	–	inconclusive: 0.56%
CCCn1c2ccccc2c2cnn(CC(=O)NC3CCN(Cc4ccccc4)CC3)c(=O)c21	–	inactive: 5.25%
O=C(/C=C/c1ccccc1Cl)Nc1cccc(S(=O)(=O)NC2=NCCCCC2)c1	–	inconclusive: -4.18%
CCOC(=O)c1c(NC(=O)CN2CCCCC2)sc2c1CCN(C(=O)OCC)C2	–	inconclusive: -15.4%
O=C(CSC1=NCCS1)Nc1ccc(S(=O)(=O)NC2CCCCC2)cc1	–	inactive: -24.6%
CC1CCc2c(sc(NC(=O)CSc3nnc(-c4ccccc4)o3)c2C#N)C1 (stereo not given)	inconclusive: 4.11 µM [rising, partial curve]	–
Cc1ccc(C)c(NC(=O)CN(C)S(=O)(=O)c2cccc3cccnc23)c1	–	inconclusive: 1.64%
CCC(=O)Nc1nc(C)c(-c2csc(Nc3cccc(O)c3)n2)s1	inconclusive: 3.55 µM [falling, partial curve]	–
Fc1ccc(-c2noc3ncnc(Nc4ccc(F)cc4F)c23)cc1	–	inconclusive: 13.4%
Cc1ccc2c(Cl)c(C(=O)NCCCn3ccnc3)sc2c1	–	inconclusive: 0.0409%
Cn1cc(SCC(=O)NCc2ccc(F)cc2)c2ccccc21	–	inactive: -16.4%
Cc1c(Cl)ccc2sc(NC(=O)c3ccco3)nc12	inconclusive: 0.282 µM [rising, full curve, poor fit]	–
Cc1nc2nc(Cc3ccccc3)[nH]n2c(=O)c1Cl	inconclusive: 5.8 µM [falling, single point]	–
O=C(Nc1ccncc1)Nc1ccc(F)c(Cl)c1	–	inconclusive: 9.41%

Next part:

Compound	Potency	activity change, negative = inhibition
COc1cccc2cc(-c3csc(NC(=O)CCC(=O)NCCCN4CCC(C)CC4)n3)c(=O)oc12	–	inconclusive: -18.6%
Cc1cc2nnc(SCC(=O)Nc3ccc(Cl)cc3)n2c(N)n1	inconclusive: 3.16 µM [rising, full curve, poor fit]	–
Cc1ccc(NS(=O)(=O)c2cc(C(=O)OCC(=O)NCC3CCCO3)ccc2C)cc1 (stereo not given)	–	inconclusive: -3.9%
O=C(O)CCCN1C(=O)/C(=C/c2cn(-c3ccccc3)nc2-c2cccs2)SC1=S	inconclusive: 3.16 µM [falling, partial curve]	–
O=C(CCn1ccc2ccccc21)NC1CCCc2ccccc21 (stereo not given)	inconclusive: 29.1 µM [falling, single point]	–
COc1ccc(Br)cc1CNC(=O)c1ccc2c(c1)N(C)CCS2	–	inactive: -0.378%
O=C(O/N=C/C1=C(Cl)c2ccccc2CC1)c1ccc(F)cc1	–	inconclusive: -0.155%
COc1cccc(C(=O)/C=C/c2ccc(SC)cc2)c1	inconclusive: 14.1 µM [falling, partial curve, poor fit]	–
O=C1c2ccccc2S(=O)(=O)N1CC(O)Cn1c2ccccc2c2ccccc21 (stereo not given)	–	inconclusive: -11.3%
O=C(c1sccc1Cl)N1CCN(Cc2ccc3c(c2)OCO3)CC1	inconclusive: 1.26 µM [falling, full curve]	–
Fc1ccc2nc(Nc3nc4c(s3)CCCC4)sc2c1	–	inconclusive: -16.5%
O=C(CSc1ncccn1)NCCc1ccccc1	–	inconclusive: 11%
CC1CCc2nn(CC(=O)NCCCN3CCCC3=O)cc2C1 (stereo not given)	–	inconclusive: 10.5%
CCc1sc(NC(=O)CN2CCC(C(N)=O)CC2)nc1-c1ccccc1	–	inconclusive: -8.79%
CCN1CCc2c(sc(NC(=O)c3ccc(S(=O)(=O)N(CCOC)CCOC)cc3)c2C(N)=O)C1	–	inactive: 1.69%
CCSc1ccccc1C(=O)Nc1nc2ccccc2c(=O)[nH]1	inconclusive: 0.501 µM [rising, full curve]	–
Cc1onc(NC(=O)c2ccc(Cl)cc2Cl)c1Br	–	inactive: 0.444%
O=C(NC(=S)Nc1ccccc1Br)C1CCCC1	inconclusive: 22.4 µM [falling, partial curve]	–
CCC(C)C(=O)Nc1nccs1 (stereo not given)	inconclusive: 20 µM [falling, single point]	–
COc1ccc(CCNC(=O)/C=C/c2ccc(C)cc2)cc1OC	–	inconclusive: -9.91%
O=C(Cn1cccc1C(=O)c1ccccc1)NCCCc1ccccc1	–	inactive: -7.17%
CNC(=O)COc1cccc(C(=O)NCc2ccccc2)c1	inconclusive: 0.00411 µM [rising, full curve, poor fit]	–
COc1cccc(C(=O)Nc2cc(C)on2)c1OC	–	inconclusive: 21.4%
O=C(CSc1nccc(=O)[nH]1)c1cc2ccccc2o1	inconclusive: 35.5 µM [rising, single point]	–
O=C(NNc1ncnc2c1cnn2-c1cccc(Cl)c1)c1ccco1	–	inconclusive: 14.2%

— PubChem BioAssay AID493014 (National Center for Advancing Translational Sciences (NCATS), 2011)
